Test results as given in US20230009539A1.
Results are given in words; binding and its absence hold for the method and conditions named. In cells and extracts the contact can be indirect. Some entries that bind do so weakly or less than the wild type.

By UniProt entry, the sequences of proteins in these tests, tags left out.
UniProt O43734: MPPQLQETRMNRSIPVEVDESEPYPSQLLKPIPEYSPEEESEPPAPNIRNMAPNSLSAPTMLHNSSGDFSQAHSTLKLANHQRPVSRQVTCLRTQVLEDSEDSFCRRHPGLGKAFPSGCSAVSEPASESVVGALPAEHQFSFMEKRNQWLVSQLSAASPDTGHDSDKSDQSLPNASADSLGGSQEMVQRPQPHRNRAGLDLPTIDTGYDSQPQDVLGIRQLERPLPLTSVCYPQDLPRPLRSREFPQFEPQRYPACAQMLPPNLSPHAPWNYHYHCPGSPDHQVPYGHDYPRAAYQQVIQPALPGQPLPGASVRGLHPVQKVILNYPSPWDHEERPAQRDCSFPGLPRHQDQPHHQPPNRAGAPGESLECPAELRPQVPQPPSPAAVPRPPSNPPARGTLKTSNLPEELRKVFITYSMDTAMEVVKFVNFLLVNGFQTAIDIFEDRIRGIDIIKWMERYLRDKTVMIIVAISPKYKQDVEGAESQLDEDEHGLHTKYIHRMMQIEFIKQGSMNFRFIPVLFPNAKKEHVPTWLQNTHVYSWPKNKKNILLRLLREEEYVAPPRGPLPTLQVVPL

Assays:
[1] = target: T1, TBK1 (endogenous, HeLa cells) (human (HeLa cells)) (UniProt Q9UHD2); experiment: co-immunoprecipitation with anti-Act1 from HeLa cells, IL-17 0, 15, 30, 60 min, control IgG at 0 and 15 min, Western blot
T1 sequence (looked up): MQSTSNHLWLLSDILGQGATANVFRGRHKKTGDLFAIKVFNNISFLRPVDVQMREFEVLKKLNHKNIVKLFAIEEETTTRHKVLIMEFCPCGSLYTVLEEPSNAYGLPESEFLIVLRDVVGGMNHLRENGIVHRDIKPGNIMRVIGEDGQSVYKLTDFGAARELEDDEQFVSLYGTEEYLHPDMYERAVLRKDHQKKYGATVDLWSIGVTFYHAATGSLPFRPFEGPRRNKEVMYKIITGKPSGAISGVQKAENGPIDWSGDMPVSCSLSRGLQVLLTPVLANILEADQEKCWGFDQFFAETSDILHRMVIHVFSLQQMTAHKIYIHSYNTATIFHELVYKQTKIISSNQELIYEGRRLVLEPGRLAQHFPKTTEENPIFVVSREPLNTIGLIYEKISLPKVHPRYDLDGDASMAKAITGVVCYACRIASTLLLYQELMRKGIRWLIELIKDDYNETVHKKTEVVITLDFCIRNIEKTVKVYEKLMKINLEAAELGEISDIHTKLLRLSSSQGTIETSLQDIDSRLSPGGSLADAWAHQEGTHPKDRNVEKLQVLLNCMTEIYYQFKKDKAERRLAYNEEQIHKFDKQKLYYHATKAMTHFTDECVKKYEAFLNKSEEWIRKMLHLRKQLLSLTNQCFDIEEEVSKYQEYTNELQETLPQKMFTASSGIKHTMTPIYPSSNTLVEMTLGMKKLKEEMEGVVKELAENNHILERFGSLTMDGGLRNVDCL

[2] = target: T2, IKKi (endogenous, HeLa cells) (human (HeLa cells)) (UniProt Q14164); experiment: as above
T2 sequence (looked up): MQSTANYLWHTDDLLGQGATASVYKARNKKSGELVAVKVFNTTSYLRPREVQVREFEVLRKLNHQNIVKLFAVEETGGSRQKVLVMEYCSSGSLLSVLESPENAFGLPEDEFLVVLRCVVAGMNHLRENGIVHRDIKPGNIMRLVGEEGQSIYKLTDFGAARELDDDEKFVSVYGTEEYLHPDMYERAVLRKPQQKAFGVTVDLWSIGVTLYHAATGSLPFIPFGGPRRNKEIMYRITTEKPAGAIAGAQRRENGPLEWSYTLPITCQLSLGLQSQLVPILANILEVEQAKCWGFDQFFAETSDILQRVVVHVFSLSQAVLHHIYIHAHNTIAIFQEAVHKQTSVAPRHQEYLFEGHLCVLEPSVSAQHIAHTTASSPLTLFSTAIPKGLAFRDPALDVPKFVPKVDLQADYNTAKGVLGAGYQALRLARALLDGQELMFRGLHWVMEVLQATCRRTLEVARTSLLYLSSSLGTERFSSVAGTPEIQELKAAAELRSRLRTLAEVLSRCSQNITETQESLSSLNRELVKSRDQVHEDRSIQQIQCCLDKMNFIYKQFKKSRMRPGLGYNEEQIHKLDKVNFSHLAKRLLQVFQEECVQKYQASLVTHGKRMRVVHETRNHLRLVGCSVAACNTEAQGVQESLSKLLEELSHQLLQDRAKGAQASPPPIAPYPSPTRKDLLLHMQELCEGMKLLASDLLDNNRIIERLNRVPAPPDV

Act1 (endogenous, HeLa cells) (from UniProt O43734 1-574)
binding [1]: binds | binding [2]: binds
